{"source": "patent US20090012170A1", "about": "“TREATMENT OF SYMPTOMS OF MOTOR DYSFUNCTION” (priority 2005, published 2009)", "tested_on": "PD patients", "experiment": "Pooled analysis of three double blind, placebo-controlled studies and their open-label extensions: earlier vs. delayed start of entacapone adjunct to levodopa/DDC inhibitor", "format": "in vivo, human", "conditions": "group starting entacapone adjunct to levodopa/DDC inhibitor 6 months earlier compared with the delayed start group", "method": "A study was carried out to evaluate the effect of earlier vs. delayed start of entacapone adjunct to traditional levodopa/DDC inhibitor treatment on the long-term Parkinson's disease symptom control up to 5 years.\nAnalysis of pooled data of three pivotal double blind, placebo-controlled studies, and their respective long-term open-label extension studies up to 5 years on entacapone adjunct to optimised levodopa/DDC inhibitor and other PD treatment.\nA total of 488 PD patients, of whom 269 were on entacapone and 219 on placebo during the 6-month double blind phase, continued with open entacapone treatment in the long-term extension phases up to 5 years. UPDRS III assessment and the mean daily levodopa dose were reported until the point when a minimum of 10 patients in each treatment arm was available, i.e. up to five years.", "note": "For at least one compound, name, drawing or mass did not settle the structure.", "data": [{"smiles": "CCN(CC)C(=O)/C(C#N)=C/c1cc(O)c(O)c([N+](=O)[O-])c1", "note": "[entacapone, (E)-2-cyano-3-(3,4-dihydroxy-5-nitrophenyl)-N-diethyl-2 propenamide]", "values": [{"measurement": "symptom control measured by UPDRS III", "value": "better symptom control measured by UPDRS III was maintained up to 5 years"}]}]}
